Screening data, single-dose tests

Source: ChEMBL document CHEMBL3988442, “University of Dundee, Small-Polar-MMV Screening Library” (2021).

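Cell assay of Leishmania donovani living inside macrophages; the read-out is not stated. Compounds at 30 µM. Higher reads as stronger inhibition (inferred: compounds with an IC50 in retests scored well above the rest). About 69,000 compounds were tested under these conditions; 1.5% (about 1,000) showed 50% or more at least once.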

Each number is a percent effect as filed. The record does not define 0% and 100%; most values in the screen are far below 50% and negative numbers occur (in some assays of this library far below -100). Compounds were drawn at random from those tested, without regard to their results. Two or more numbers in one place are separate tests of the same structure; such repeats can differ widely.

Compound	Percent Effect
COc1ccc(NC(=O)c2ccc(-n3ncc(C#N)c3N)cc2)cn1	14.09%
O=C(O)C(F)(F)F.[H][C@@]12OCCN(C(=O)CCc3ccccc3)[C@@]1([H])CC[C@H]2OCCN(C)C	-8.162%
CC(C)(C)NC(=O)NCc1cnn2ccccc12	6.412%
Cc1ccc2cc(CNCCCO)c(=O)[nH]c2c1	8.335%
CCc1nc(C)c(C(=O)NCCNC(=O)Cc2cccc(F)c2)s1	-0.4771%
COCCCNC(=O)CCn1nc(C)c2ccccc21	-8.766%
CC(C)c1cc(N[C@@H](CO)C(N)=O)n2nccc2n1	-12.11%
CC(C)c1nn(C)c(Cl)c1CNC1CCOc2ccccc21.Cl (stereo not given)	4.654%
CC(C)[C@H]1CN(c2ccncc2)C[C@@H]1NC(=O)C1(C#N)CCOCC1	3.701%
CC(C1CCN(Cc2ccc(N(C)C)nc2)CC1)N1CCOCC1 (stereo not given)	35.27%
O=c1ncn(-c2ccccc2F)c2ncccc12	13.99%
CCCc1cc(C(=O)NCCN2CCCS2(=O)=O)[nH]n1	1.873%
O=C(O)C(F)(F)F.O=C1CCC2(CCN(c3ncc(F)cn3)CC2)N1Cc1ccncc1	1.04% & -7.26%
O=C(c1cc(-n2cccc2)ccc1Cl)N1CCC2(CC1)OCCO2	10.67%
O=C(CC1CCCC1)N1CCN(c2ccc(-n3cncn3)nn2)CC1	15.03% & 9.832%
COc1ncc(NCc2ccc(C#N)cc2)cc1C(N)=O	-5.861%
COc1cccc(NC(=O)Cc2c(C)nc3c(c2C)c(=O)[nH]n3C)c1	34.94%
CC(C)NC(=O)N1CCc2ncc(CN3CCOCC3)n2CC1.O=C(O)C(F)(F)F	-18.86%
Cc1nsc(NC(=O)NC2CCN(C)CC2)n1	21.49%
CCc1nnc(Nc2cccc(C3CCN(c4cnccn4)CC3)n2)s1	-8.612%
OCC1CCCCN1CCCNCc1cc(O)c2cc(F)ccc2n1 (stereo not given)	17.38%
Cc1nsc(NC(=O)N2CCCCC2CCO)n1 (stereo not given)	-6.697%
[H][C@@]12COC[C@]1([H])[C@@H](OCC)CN2C(=O)c1ccnnc1	20.77%
[H][C@@]12CN(C(=O)NCC)C[C@]1([H])OCC(=O)N2C	-13.6%
CC(CCNC(=O)NCCNc1cnccn1)c1ccccc1 (stereo not given)	11.49%
CN(C)CC(=O)N1CCC2(CC1)COCCN(c1ncccn1)C2	-9.661%
CCCc1nnsc1C(=O)N1CCCC1(C)C(=O)N1CCOCC1 (stereo not given)	35.05%
O=C1NC2(CCN(C(=O)Cc3ccsc3)CC2)CC1c1ccccc1 (stereo not given)	3.005% & 17.75%
Cc1noc(C)c1NC(=O)N1CCC(NC(=O)OC(C)(C)C)CC1	-24.76%
CN1CCN(c2ccccc2NC(=O)NCC[S+](C)[O-])CC1 (stereo not given)	12.21%
Cc1cc(C)n2c(CCCNS(=O)(=O)c3ccccc3)nnc2n1	-54.46%
CC(NC(=O)COc1ccccc1I)C1CC1 (stereo not given)	14.56%
CC(C)C[C@@H]1N[C@H](C(=O)NC(C)C)Cc2c[nH]c3cccc1c23	15.57%
CCN(CC)CCn1cc(NC2CCN(C(C)(C)C)CC2)cn1	-8.238%
OC(CN(Cc1ccccc1)Cc1ccncc1)c1ccco1 (stereo not given)	18.35%
COc1ccccc1C(NC(=O)C1CCC1)c1noc(C)n1 (stereo not given)	19.53%
O=C(O)C(F)(F)F.O=C(O)C(F)(F)F.[H][C@@]12CCCO[C@]1([H])[C@H](N(C)C)CN(Cc1ccco1)C2	-2.148%
CC(=O)Nc1nc(CN2CCCCC2Cn2cccn2)cs1 (stereo not given)	-0.09014%
Cc1nc(N(C)C)nc(N(C)Cc2cnccn2)c1C	1.703%
CCCNC(=O)c1cnc2n1CCCC2	27.38%
CN(C)CCN(Cc1ccco1)C(=O)Cc1cn2ccsc2n1	16.28%
CNc1nc(C2CCCCN2C(=O)C(C)(C)OC)nc2c1CN(C)CC2 (stereo not given)	11.07% & 19.05%
COC(C)(C)CNC(=O)c1cn(-c2cccc(Cl)c2F)nn1	34.35%
Cc1cc(S(C)(=O)=O)c(C)c(S(=O)(=O)NCC2CCC2)c1	6.637%
O=C(C1CC1)N1Cc2[nH]nc(COCc3cccnc3)c2C1.O=C(O)C(F)(F)F.O=C(O)C(F)(F)F	8.833%
Cc1ccccc1-c1cc(NC(=O)CC(C)C)n(CCO)n1	4.056%
Cc1noc(CCCC(=O)NCCc2cc3ccccc3[nH]2)n1	41.86%
Cc1cc2ccccc2n1CCC(=O)N1CCCC(O)(CN(C)C)CC1 (stereo not given)	1.375%
COC(=O)c1cc(C(=O)N2CCC(OC)CC2)n(-c2ccccc2)n1	11.93%
OCC(CO)N1CCC(c2nnc(Cn3ccnc3)n2C2CC2)CC1	-0.2779%
CC(C)NC(=O)CC1COC2(CCN(Cc3cccnc3)CC2)C1.O=C(O)C(F)(F)F.O=C(O)C(F)(F)F (stereo not given)	7.808%
Cc1cnn(CC2CCCN2C(=O)c2ccc3[nH]nnc3c2)c1 (stereo not given)	-0.6334%
Cc1ncsc1CN1CCn2c(COc3cccnc3)cnc2C1C.O=C(O)C(F)(F)F.O=C(O)C(F)(F)F (stereo not given)	-8.741%
CC(C(=O)Nc1cnn(CC(N)=O)c1)c1ccc(Cl)s1 (stereo not given)	34.82%
Cc1ccc(N2CCCC(NCC(=O)NCC3CC3)C2)nn1 (stereo not given)	6.295%
N#Cc1ccccc1C(=O)N1C[C@@H](CN2CCCCC2)[C@@H](CO)C1	0.8672%
COCCNC(=O)Nc1ccc(-c2nc(C(C)C)no2)cc1	-5.463%
CC(C)NC(=O)c1ccc2c(c1)nc1n2CCN(C(C)C)C1	-8.191%
O=C1CC2(CCN(c3nncs3)C2)CN1c1ccc2c(c1)OCCO2 (stereo not given)	-5.469%
Cn1cc(NC(=O)c2cccc(C(F)(F)F)c2)c(=O)n(C)c1=O	-2.416%
Cn1ccc(C(=O)N2CCCN(CCCc3ccccc3)CC2)cc1=O	16.36%
CN(C)C(=O)N1CC[C@@H](c2ccc3ccccc3c2)[C@H](O)C1	-26.18%
COc1c[nH]c(C(=O)N2CCN(c3ccccc3)CC2)cc1=O	7.964%
CN(CC1COCCO1)c1ncnc2cc(F)ccc12 (stereo not given)	8.171%
[H][C@]12CCN(C(=O)Cc3ccc(OC)cc3)[C@@]1([H])CCC(=O)N2	-9.686% & -1.199%
CCOC(=O)C(C)Nc1ccc(CCN2CCOCC2)cc1 (stereo not given)	-32.01%
Cc1c(C(=O)N2C[C@@H](CN(C)CCO)[C@@H](CO)C2)sc2ccccc12	14.75%
COc1cc(CN2CCCC2c2cccc(F)c2)cc(OC)c1OC (stereo not given)	4.07%
COCCn1cncc1-c1nc2c([nH]1)CC(C)(C)CNC2=O	14.17%
Cc1cc(NC(=O)c2nn(C3CCS(=O)(=O)C3)c3c2CCCC3)no1 (stereo not given)	-28.01%
CCCS(=O)(=O)N1CC(=O)N(Cc2cccc(OC)c2OC)CC(O)C1 (stereo not given)	-2.691%
CN(CCCc1cc(-c2cccc(F)c2)n[nH]1)C(=O)CCn1cncn1	20.09%
[H][C@]12CC[C@]([H])(CN(c3ncccn3)C1)N(C(=O)CSc1nc(C)n[nH]1)C2	27.12%
CCOc1ccnc(N2CCCN(C(=O)c3cc[nH]c3C)CC2)n1	-13.34%
CCc1c(C(=O)N2CCC(CC(N)=O)CC2)cnn1C(C)(C)C	15.64%
CCC1CN(C(=O)COc2ccc(C)nc2)CCO1 (stereo not given)	-6.362%
[H][C@@]12C[C@@H](NC(=O)C(C)(C)C)[C@]1([H])CN(S(=O)(=O)c1ccc(C)cc1)C2	-7.618%
O=C(O)C(F)(F)F.[H][C@@]12CCN(C3CCOCC3)C[C@]1([H])[C@@H](CNC(=O)c1cnn(C)c1)OC2	-7.051%
CN(CCO)Cc1nnc(C2CCN(C(=O)C3CCOCC3)CC2)n1C	-10.07%
CCc1nc(NC2CC(=O)N(CC3CCCCC3)C2)ncc1C (stereo not given)	15.64%
COc1ccc(Br)cc1S(=O)(=O)N(C)Cc1ccc(N(C)C)cc1	5.313%
Cc1ccc(C(=O)NCCC2CCN(C)CC2)cc1N(C)S(C)(=O)=O	-20.65%
CNC(=O)NC(=O)CN1CCC(c2c[nH]c3ccc(OC)cc23)CC1	36.53%
Cc1cc(CN2CCN(CCOc3cccc(C#N)c3)CC2)no1	26.61%
Cc1cc(C)n(C2CCN(c3ncnc4c3CCNCC4)C2)n1 (stereo not given)	-11.58%
O=C(CCS(=O)(=O)C1CCCC1)N1CCCC1c1ccsc1 (stereo not given)	-9.914%

For reference, 8 entries once more:

- CN(CC1COCCO1)c1ncnc2cc(F)ccc12 (stereo not given) | 8.171%
- CCc1nc(C)c(C(=O)NCCNC(=O)Cc2cccc(F)c2)s1 | -0.4771%
- CN(C)CCN(Cc1ccco1)C(=O)Cc1cn2ccsc2n1 | 16.28%
- O=C(CCS(=O)(=O)C1CCCC1)N1CCCC1c1ccsc1 (stereo not given) | -9.914%
- Cn1ccc(C(=O)N2CCCN(CCCc3ccccc3)CC2)cc1=O | 16.36%
- CCCS(=O)(=O)N1CC(=O)N(Cc2cccc(OC)c2OC)CC(O)C1 (stereo not given) | -2.691%
- COc1ccccc1C(NC(=O)C1CCC1)c1noc(C)n1 (stereo not given) | 19.53%
- CC(C)NC(=O)c1ccc2c(c1)nc1n2CCN(C(C)C)C1 | -8.191%